The other results are listed elsewhere or left out. The list holds hits alone, and they repeat only in part.

By UniProt entry, the sequences of proteins in these tests, tags left out.
DDX54, Q8TDD1, UniProt Q8TDD1, whole entry: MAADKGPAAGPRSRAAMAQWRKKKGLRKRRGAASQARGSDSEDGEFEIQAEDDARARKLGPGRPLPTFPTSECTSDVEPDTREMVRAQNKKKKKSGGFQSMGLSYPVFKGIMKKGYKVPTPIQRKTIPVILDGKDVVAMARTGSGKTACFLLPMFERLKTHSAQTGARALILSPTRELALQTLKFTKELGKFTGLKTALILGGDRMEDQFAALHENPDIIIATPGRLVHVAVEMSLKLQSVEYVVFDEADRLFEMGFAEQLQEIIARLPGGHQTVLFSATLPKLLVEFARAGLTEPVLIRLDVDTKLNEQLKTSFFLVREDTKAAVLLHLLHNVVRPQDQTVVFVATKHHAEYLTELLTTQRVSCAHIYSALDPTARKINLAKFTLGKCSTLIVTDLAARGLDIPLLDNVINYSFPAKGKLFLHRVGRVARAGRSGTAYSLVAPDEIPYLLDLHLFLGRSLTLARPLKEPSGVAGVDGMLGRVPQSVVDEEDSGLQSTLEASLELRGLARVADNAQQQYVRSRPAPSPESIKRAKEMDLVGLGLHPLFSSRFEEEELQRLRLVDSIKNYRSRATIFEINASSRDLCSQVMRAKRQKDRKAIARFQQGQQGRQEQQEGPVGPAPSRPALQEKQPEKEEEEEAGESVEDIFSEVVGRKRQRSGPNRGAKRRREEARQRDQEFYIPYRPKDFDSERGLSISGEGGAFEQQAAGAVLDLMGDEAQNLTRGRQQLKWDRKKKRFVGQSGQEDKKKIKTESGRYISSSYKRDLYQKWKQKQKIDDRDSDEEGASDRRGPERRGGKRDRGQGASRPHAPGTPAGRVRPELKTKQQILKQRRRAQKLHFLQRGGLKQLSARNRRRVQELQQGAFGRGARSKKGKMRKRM
TFG, Q92734, UniProt Q92734, whole entry: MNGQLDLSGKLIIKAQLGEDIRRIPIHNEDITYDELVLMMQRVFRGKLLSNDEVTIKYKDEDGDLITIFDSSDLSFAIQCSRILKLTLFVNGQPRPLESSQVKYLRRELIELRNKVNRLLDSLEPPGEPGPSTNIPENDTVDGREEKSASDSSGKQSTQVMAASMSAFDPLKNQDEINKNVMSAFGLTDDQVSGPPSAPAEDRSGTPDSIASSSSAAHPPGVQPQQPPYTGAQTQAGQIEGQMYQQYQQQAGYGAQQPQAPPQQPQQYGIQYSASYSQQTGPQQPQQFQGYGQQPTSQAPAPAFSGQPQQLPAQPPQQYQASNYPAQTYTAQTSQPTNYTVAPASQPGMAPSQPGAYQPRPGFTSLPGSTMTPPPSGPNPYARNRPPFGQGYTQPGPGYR

Assay in all cases: PRISMA enrichment of interactor (LFQ) in peptide spot vs all other peptide spots (log2 fold change); higher = stronger / more specific binding of the interactor to the peptide
For one assay, the target named is ACAT1, P24752. The procedure:
(§1)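 PRISMA: 15-aa overlapping tiles (offset 8 aa) of 60 microproteins, plus SOS1/GLUT1 control peptides, were spot-synthesized on cellulose membranes in triplicate. Membranes were incubated with benzonase-treated HEK293T lysate, and bound proteins were identified by LC-MS/MS with LFQ. Enrichment is the log2 fold change of each protein in one spot versus all other spots. Only interactors passing the significance cutoff are listed.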

A further assay concerns the target HAGH, Q16775. How it is done:
as §1

In the next assay the target is HSDL2, Q6YN16. How it is done: as §1
Another assay deals with SEC61G, P60059. How it is done: as §1
The target of another assay is TRAF7, Q6Q0C0. How it is done: as §1
The target of a further assay is TTC21B, Q7Z4L5. How it is done: as §1
Another assay has as its target WDR74, Q6RFH5. The procedure: as §1
For the next assay, the target named is ZNF638, Q14966. How it is done:
as §1

A further assay concerns the target ACADSB, P45954. How it is done:
as §1

A further assay deals with CSNK1E, P49674. How it is done: as §1
Another assay has as its target CSTF3, Q12996. How it is done: as §1
The next assay has as its target DDX54, Q8TDD1. The procedure:
as §1

The target in the next assay is DPM1, O60762. How it is done:
as §1

Another assay concerns the target GPS1, Q13098. How it is done: as §1
The target in a further assay is GTF3C1, Q12789. The procedure:
as §1

The target in a further assay is PHF10, Q8WUB8. How it is done:
as §1

The target of another assay is PINX1, Q96BK5. The procedure:
as §1

In a further assay the target is RRAS2, P62070. The procedure: as §1
For the next assay, the target named is SPAST, Q9UBP0. How it is done: as §1
The target in the next assay is TSR1, Q2NL82. How it is done: as §1
Another assay deals with FAM98B, Q52LJ0. The procedure: as §1
A further assay concerns the target MAIP1, Q8WWC4. How it is done:
as §1

A further assay has as its target PHF8, Q9UPP1. How it is done:
as §1

In the next assay the target is PSMD13, Q9UNM6. The procedure:
as §1

The target in the next assay is SYNE2, Q8WXH0. How it is done: as §1
Another assay addresses TFG, Q92734. How it is done: as §1

For the molecule SFSPGGRSWCRRADA [CTD-2366F13.1], the “PRISMA enrichment of interactor (log2)” value in the assay with ACAT1, P24752 was 7.58; with HAGH, Q16775, 6.31; with HSDL2, Q6YN16, 4.86; with SEC61G, P60059, 4.47; in the assay with TRAF7, Q6Q0C0 it was 5.83; with TTC21B, Q7Z4L5, 5.38. Also, the “PRISMA enrichment of interactor (log2)” value with WDR74, Q6RFH5 was 5.04; with ZNF638, Q14966, 5.08.

On to WTPAARACGTRHPST [THAP7], for which the “PRISMA enrichment of interactor (log2)” value with ACADSB, P45954 was 5.39; in the assay with CSNK1E, P49674, 5.1; in the assay with CSTF3, Q12996 it was 6.13; with DDX54, Q8TDD1 it was 6.07; in the assay with DPM1, O60762, 7.28; with GPS1, Q13098 it was 4.26. Also, the “PRISMA enrichment of interactor (log2)” value with GTF3C1, Q12789 came out at 4.69; with PHF10, Q8WUB8, 4.02; with PINX1, Q96BK5, 5.34; in the assay with RRAS2, P62070, 4.13; in the assay with SPAST, Q9UBP0, 4.42; with TSR1, Q2NL82 it was 5.14.

Turning to MRPVGLVLRWKKRAV [RP1-206D15.6], the “PRISMA enrichment of interactor (log2)” value is 8.48 with ACAT1, P24752; 7.11 with FAM98B, Q52LJ0; 4.57 in the assay with MAIP1, Q8WWC4; 5.28 with PHF8, Q9UPP1; 6.24 in the assay with PSMD13, Q9UNM6; 4.86 with SYNE2, Q8WXH0. The “PRISMA enrichment of interactor (log2)” value in the assay with TFG, Q92734 is 4.12.

Values taken from the supplement of paper PMC10032668.
